Screening data, single-dose tests

The values are deposited in ChEMBL (CHEMBL3988442, “University of Dundee, Small-Polar-MMV Screening Library” (2021)).

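Whole-parasite assay of Trypanosoma brucei over 72 hours; the read-out is not stated. Tested at 30 µM. Direction is inferred from retests: higher values go with stronger inhibition. Values scatter widely below zero; nearly all retest evidence comes from the higher of the two concentrations used. Size under these conditions: about 64,000 compounds, about 940 of them at 50% or above in at least one test.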

The filed quantity is “Percent Effect” (%). The record does not define 0% and 100%; most values in the screen are far below 50% and negative numbers occur (in some assays of this library far below -100). The compounds are a random part of those screened.

compound,Percent Effect
Cc1csc(N2CCN(Cc3ccccn3)CC2)n1,-13.1
Cc1sc2nc(SC(C)c3nc(C(C)(C)C)no3)nc(N)c2c1C (configuration not stated),-10.3
CCOc1nnc(CN(C)C2CCCN(c3cccnn3)C2)s1 (configuration not stated),4.837
Cc1noc(OCCOc2cccc(C#N)c2)n1,-8.99
COCC(c1cccc(C(F)(F)F)c1)N(C)C(=O)c1ccccn1 (configuration not stated),13.01
[H][C@@]12CCN(C[C@@H]1CN1CCCCC1)[C@@H](CNC(=O)Nc1ccccc1)C2,-0.6243
Cc1ccc(NC2CCCN(CCc3ccccc3)C2)nn1 (configuration not stated),-31.9
CC(C)n1c(C(=O)N2CCCC2)nc2c1CCN(c1ncccn1)C2,-53.96
CCc1nccn1C1CCCN(C(=O)c2cnn(C)c2C2CC2)C1 (configuration not stated),-29.84
CS(=O)(=O)N1CCCC12CCCN(S(=O)(=O)c1ccc(F)cc1)C2 (configuration not stated),-38.89
FC(F)(F)c1ccc(-c2c[nH]c([C@@H]3COCCN3)n2)cc1,11.07
Cc1nn(C)c2nc(N(Cc3nccs3)C3CC3)sc12,-48.67
CCC(C)Oc1ccc(CNCCNC(C)=O)cc1OC (configuration not stated),5.703
O=C(CCCN1CCCCC1)NC(C(=O)O)c1ccc(Cl)cc1 (configuration not stated),-86.14
Nc1cc(CCCNC(=O)NC2CC2)nn1-c1ccccc1,-91.84
CC(C)N(C)CC(=O)N1CCCC(c2ccc(C(=O)O)cc2)C1 (configuration not stated),40.75
Cc1csc(C(=O)N2CC(S(=O)(=O)C3CCCCC3)C2)c1,-9.586
CCN(C(=O)CN1CCn2c(C)nnc2C1)C1=CCCCC1,-32.36
CCc1noc(CN2CCCC2C(=O)OCc2ccccc2)n1 (configuration not stated),-29.1
CN(C(=O)Cn1nc(-c2ccc(Cl)cc2)ccc1=O)C1CCS(=O)(=O)C1 (configuration not stated),-28.77
COCc1cccc(C(=O)N2CCCN(C(=O)OCC(C)C)CC2)c1,-0.3529
NCC1Cc2cc(-c3cnccn3)cc(Cl)c2O1 (configuration not stated),-40.38
CCCc1nc(NCCCn2ccnc2)c2c(n1)c(C)nn2CC,-2.674
CCC(C)(NC(=O)CCN1CCOC1=O)C(=O)OC (configuration not stated),-6.541
CC(C)(C)Cc1nnc(NCc2cccc(C#N)c2)o1,-13.99
CN1CCOC(CNC(=O)COc2ccc(F)cc2F)C1 (configuration not stated),6.715
Cc1ccc(CN(CCCN(C)C)Cc2cnc(C)n2C)o1.O=C(O)CC(O)(CC(=O)O)C(=O)O,-2.378
O=C(O)C(F)(F)F.[H][C@@]12CN(C)CCO[C@]1([H])CN(C(=O)COc1cccc(Cl)c1)C2,-62.17
CSc1cc2c(cc1NC(=O)NCc1ccco1)OCCO2,11.05
CS(=O)(=O)Cc1cc(Cl)c2c(c1)OCCCO2,2.66
CC(C)NC(=O)CN(C1CC1)C(C)C1CC1 (configuration not stated),-22.52
Cc1nc(Nc2nnc(C)s2)cc(C2CCCN2c2ccncn2)n1 (configuration not stated),15.64
CCOc1ccc(C#N)cc1NC(=O)N1CCC(n2cncn2)CC1,-14.46
CC(C)NC(=O)NCCCc1cc(N)n(-c2ccccc2)n1,-56.17
Cc1ccc2c(c1)C1(CCN(C(N)=O)CC1)CN2C(=O)N(C)C,-12.19
O=C(O)C(F)(F)F.[H][C@]12CN(C)C[C@@]1(C(=O)O)CCCN(C(=O)NCc1ccccc1)C2,-30.97
COc1cccc(CC(=O)N2CCC3(CC2)OCCCC3O)c1OC (configuration not stated),-30.22
CCCn1nc(C)c(CN(CCN(C)C)Cc2ccccn2)c1C,-9.306
CC(C)Nc1ccc(-c2ccnc3c2ccn3C)nn1,1.237
Cc1ccc(CNCc2ccc(-n3nc(C)cc3C)nc2)cc1,-12.87
CS(=O)(=O)c1cn[nH]c1C1CCCCN1C(=O)Cc1cccnc1 (configuration not stated),-24.09
Cn1cc(C(=O)CC2CCCN2C(=O)c2n[nH]c3ccccc23)cn1 (configuration not stated),16.77
O=C(c1ccnc(-n2ccnc2)c1)N1CCCC(n2ccnc2)C1 (configuration not stated),15.31
c1csc(-c2nc(CNCCn3cccn3)cs2)c1,-6.092
c1cc(CNCCc2cn3ccccc3n2)c2c(c1)OCCCO2,-1.705
CCc1cc(-c2cc[nH]n2)nc(N2CCOCC2)n1,-51.95
CSCc1cccc(S(=O)(=O)N2CCCC2)c1,-19.4
O=C(Nc1cc(-c2ccccn2)no1)C1CC1,-9.681
NC(=O)C1CN(C(=O)C2(c3ccc(F)cc3F)CCCC2)CCO1 (configuration not stated),3.012
[H][C@@]12C[C@H](C(=O)Nc3ccccc3)[C@@]([H])(CN(S(=O)(=O)C3CC3)C1)O2,-22.5
CC(=O)N1CCC(c2ccnc(Nc3cnccn3)n2)C1 (configuration not stated),12.61
CCCn1ccnc1CN1C[C@@H](CN2CCCN(C)CC2)[C@@H](CO)C1,-1.697
O=C(O)C(F)(F)F.O=C(O)C(F)(F)F.O=C(O)c1cc2c(nc1-c1ccoc1)CCN(CC1CCOC1)CC2 (configuration not stated),-20.36

Some entries from above, unchanged:

- CCN(C(=O)CN1CCn2c(C)nnc2C1)C1=CCCCC1 : -32.36%
- CC(C)Nc1ccc(-c2ccnc3c2ccn3C)nn1 : 1.237%
- COCC(c1cccc(C(F)(F)F)c1)N(C)C(=O)c1ccccn1 (configuration not stated) : 13.01%